Experiment: general procedure: peptide synthesis; chloro trityl chloride resin (CTL resin, Nova Biochem Cat No. 01-64-0021)
Conditions: whole synthesis; for crude yield: scale of the general procedure 700 mg resin

Substance	crude mass	crude yield
H-QCRFFRSAC-OH (cysteine pairing not given here)	0.75 g	86.5%
H-YCRFFNAFC-OH (cysteine pairing not given here)	0.70 g	80.7%
